Assay results published in publication PMC11873976.
These are yes or no findings as the source states them, for the method shown. In cells and extracts the contact can be indirect. Some binding calls cover weakened binding; strength is not graded here.

The chains behind the UniProt entries cited, without tags or fusion partners. Where a name states a change or a piece, a line headed by the entry shows the natural chain unless it says otherwise. Residues count along the entry.
UniProt P32248, residues 25-378: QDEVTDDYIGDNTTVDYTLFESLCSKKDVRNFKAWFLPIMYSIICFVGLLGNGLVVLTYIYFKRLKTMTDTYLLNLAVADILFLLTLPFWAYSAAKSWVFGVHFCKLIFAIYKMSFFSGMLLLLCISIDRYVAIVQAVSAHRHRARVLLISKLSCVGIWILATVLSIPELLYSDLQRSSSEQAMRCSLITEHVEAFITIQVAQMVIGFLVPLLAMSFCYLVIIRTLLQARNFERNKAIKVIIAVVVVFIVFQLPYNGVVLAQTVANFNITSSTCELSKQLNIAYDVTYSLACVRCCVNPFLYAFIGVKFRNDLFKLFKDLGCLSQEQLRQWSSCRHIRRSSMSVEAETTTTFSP
UniProt P32121: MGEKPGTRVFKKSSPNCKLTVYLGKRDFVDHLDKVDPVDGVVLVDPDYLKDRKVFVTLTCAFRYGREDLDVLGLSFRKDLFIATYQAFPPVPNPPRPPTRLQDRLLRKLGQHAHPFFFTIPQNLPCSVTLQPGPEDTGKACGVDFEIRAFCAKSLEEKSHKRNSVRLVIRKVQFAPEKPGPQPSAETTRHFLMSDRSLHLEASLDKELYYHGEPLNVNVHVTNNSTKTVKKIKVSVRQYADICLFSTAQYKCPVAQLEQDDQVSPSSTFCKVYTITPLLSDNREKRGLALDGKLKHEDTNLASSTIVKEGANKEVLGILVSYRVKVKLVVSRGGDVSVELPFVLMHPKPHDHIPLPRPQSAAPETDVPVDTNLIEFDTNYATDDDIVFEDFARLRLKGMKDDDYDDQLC

Target: hCCR7-smBiT (human CC chemokine receptor type 7 fused to smBiT) (human) (UniProt P32248)
Assay: split reporter; HEK293T cells co-transfected with hCCR7-smBiT and LgBiT-β-arrestin2 (R393E, R395E); HBSS with 20 mM HEPES; 30 min preincubation with small-molecule antagonists or vehicle; luminescence after stimulation with CCL19 (18 nM, EC25)

LgBiT-β-arrestin2 mutant (R393E, R395E) (from UniProt P32121 1-409)
binding: binds
